Reference: PMC9697525
For some assays here: Negatives hold for the conditions tested. For some assays here: For at least one entry, the source does not settle the construct or the ends of the probe.

Amino acid sequences for entries named in this document (tags omitted). A change or cut given only in a name is not applied to a line headed by its entry. Residues count along the entry.
UniProt P05067: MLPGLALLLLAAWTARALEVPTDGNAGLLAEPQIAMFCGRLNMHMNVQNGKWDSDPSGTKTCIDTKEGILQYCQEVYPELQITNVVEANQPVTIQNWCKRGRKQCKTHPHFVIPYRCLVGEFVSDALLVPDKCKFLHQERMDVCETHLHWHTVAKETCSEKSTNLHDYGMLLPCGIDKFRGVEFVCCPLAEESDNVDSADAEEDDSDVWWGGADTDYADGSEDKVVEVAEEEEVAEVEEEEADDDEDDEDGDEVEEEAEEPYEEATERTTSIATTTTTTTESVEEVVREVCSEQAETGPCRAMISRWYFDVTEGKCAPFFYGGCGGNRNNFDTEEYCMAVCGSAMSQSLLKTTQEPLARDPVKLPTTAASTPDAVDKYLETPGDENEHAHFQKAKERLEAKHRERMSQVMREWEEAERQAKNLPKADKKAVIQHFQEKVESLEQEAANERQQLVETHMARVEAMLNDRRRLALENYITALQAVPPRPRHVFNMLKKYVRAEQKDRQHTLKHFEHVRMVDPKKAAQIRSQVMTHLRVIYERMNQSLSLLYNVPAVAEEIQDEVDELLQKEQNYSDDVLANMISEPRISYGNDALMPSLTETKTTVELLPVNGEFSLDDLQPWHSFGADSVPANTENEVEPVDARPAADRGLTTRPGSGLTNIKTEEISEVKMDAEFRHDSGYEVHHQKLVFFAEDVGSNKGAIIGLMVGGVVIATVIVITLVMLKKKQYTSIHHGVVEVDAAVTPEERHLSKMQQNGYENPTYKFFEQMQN
UniProt P02769, 25-607: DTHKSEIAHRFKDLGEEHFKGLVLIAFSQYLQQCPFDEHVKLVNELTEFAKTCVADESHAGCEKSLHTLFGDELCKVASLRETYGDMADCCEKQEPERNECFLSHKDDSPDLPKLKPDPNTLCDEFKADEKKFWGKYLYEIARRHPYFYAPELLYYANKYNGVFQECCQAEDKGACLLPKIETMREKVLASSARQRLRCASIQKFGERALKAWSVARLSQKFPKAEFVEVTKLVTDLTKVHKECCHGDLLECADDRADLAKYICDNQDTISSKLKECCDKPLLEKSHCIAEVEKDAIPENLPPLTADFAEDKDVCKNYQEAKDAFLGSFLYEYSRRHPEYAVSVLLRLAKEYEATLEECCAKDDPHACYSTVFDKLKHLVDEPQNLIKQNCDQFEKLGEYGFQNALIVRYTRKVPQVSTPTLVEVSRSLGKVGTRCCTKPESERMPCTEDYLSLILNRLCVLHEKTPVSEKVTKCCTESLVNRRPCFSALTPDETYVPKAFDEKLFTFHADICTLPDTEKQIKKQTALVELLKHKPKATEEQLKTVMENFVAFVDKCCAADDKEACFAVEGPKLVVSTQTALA
UniProt P10636: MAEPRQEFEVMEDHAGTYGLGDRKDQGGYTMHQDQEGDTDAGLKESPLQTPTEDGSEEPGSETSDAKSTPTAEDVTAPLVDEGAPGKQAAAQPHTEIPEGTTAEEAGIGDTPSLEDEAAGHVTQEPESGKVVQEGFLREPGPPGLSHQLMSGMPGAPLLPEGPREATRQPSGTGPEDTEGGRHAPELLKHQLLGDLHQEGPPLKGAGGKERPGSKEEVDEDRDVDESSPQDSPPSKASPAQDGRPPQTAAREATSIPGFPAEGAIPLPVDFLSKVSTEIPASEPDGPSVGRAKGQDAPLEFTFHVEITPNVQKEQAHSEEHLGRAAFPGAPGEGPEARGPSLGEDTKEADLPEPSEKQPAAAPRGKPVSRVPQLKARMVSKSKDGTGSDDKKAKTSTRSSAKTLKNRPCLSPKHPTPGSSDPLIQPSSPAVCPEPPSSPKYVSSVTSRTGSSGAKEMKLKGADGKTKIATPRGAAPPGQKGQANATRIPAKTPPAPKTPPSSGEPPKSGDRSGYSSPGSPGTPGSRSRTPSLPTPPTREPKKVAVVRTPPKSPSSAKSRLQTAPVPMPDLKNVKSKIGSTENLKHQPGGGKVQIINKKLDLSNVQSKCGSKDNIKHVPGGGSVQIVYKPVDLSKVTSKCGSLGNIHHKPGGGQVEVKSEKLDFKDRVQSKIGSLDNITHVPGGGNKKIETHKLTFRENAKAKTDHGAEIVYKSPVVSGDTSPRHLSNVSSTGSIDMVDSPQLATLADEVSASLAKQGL

How the values were obtained:
Test in all cases: FRET fluorescence recovery (displacement from Au NRs@PDA)
[1] = target: amyloid-beta fibril (AbF) (UniProt P05067); settings: 20 nM AbF, no obvious recovery, 5'-HS-(CH2)6, QD-aptamer conjugates (in deionized water) with 0.5 mg/mL Au NRs@PDA stock (55 uL to 20 uL), 30 min quench, then 120 min with protein at room temperature, commercial protein, residues 672-711, single-stranded DNA
[2] = target: amyloid-beta monomer (AbM) (UniProt P05067); settings: 20 nM AbM, no obvious recovery; 5'-HS-(CH2)6; QD-aptamer conjugates (in deionized water) with 0.5 mg/mL Au NRs@PDA stock (55 uL to 20 uL), 30 min quench, then 120 min with protein at room temperature; commercial protein; residues 672-711; label: QDs625 (CdSe/CdS/ZnS) via 5' thiol; single-stranded DNA
[3] = target: bovine serum albumin (BSA) (bovine) (UniProt P02769); settings: 20 nM BSA, no obvious recovery; 5'-HS-(CH2)6; QD-aptamer conjugates (in deionized water) with 0.5 mg/mL Au NRs@PDA stock (55 uL to 20 uL), 30 min quench, then 120 min with protein at room temperature; commercial protein; label: QDs625 (CdSe/CdS/ZnS) via 5' thiol; single-stranded DNA
[4] = target: tau protein (human) (UniProt P10636); settings: Au NRs@PDA quencher, LOD 20 pM (not a Kd); 5'-HS-(CH2)6; QD-aptamer conjugates (in deionized water) with 0.5 mg/mL Au NRs@PDA stock (55 uL to 20 uL), 30 min quench, then 120 min with protein at room temperature; commercial protein; label: QDs665 (CdSe/CdS/ZnS) via 5' thiol; single-stranded DNA

Row | Sequence | binding result ([1]; label: QDs625 (CdSe/CdS/ZnS) via 5' thiol) | binding result [2] | binding result [3] | binding result ([1]; label: QDs665 (CdSe/CdS/ZnS) via 5' thiol) | binding result [4]
1 | GCCTGTGTTGGGGCGGGTGCG [AbO aptamer] | no binding | no binding | no binding | – | –
2 | GCGGAGCGTGGCAGG [tau aptamer] | – | – | – | no binding | binds
